Some results were stated once for a whole list of compounds, not compound by compound.
Assay: Radical-scavenging activity by DPPH
Conditions: DPPH assay; read-out: IC50, antioxidant power (DPPH)
Text: In this example, the 2,2-diphenyl-1-picrylhydrazyl (DPPH) method was used to explore the capacity of five isolated compounds of the invention to act as free radical scavengers. The DPPH assay has been extensively used to test the free radical scavenging ability of various chemicals (Brand-williams, W. et al., Wiss. Technol. 1995, 28, 25-30; Dinis, T. C. et al., Arch. Biochem. Biophys. 1994, 315, 161-169.)
This method was adapted from that of Brand-Williams, et al. (Brand-williams, W.; Cuvelier, M. E.; Berset, C. Lebensm. Wiss. Technol. 1995, 28, 25-30.). At least seven different concentrations were prepared for each purified compound. 25 μl pure compound solution and 975 μL DPPH solution (63.4 μM) were mixed together and left in the dark for 30 min. Each sample was triplicated and the values were averaged. The absorbance of the samples was measured at 515 nm against methanol solution without DPPH as the blank reference. The absorbance was measured every 30 min until the reaction reached a plateau. The reaction kinetics were then plotted using the above data and the percentage of DPPH remaining at the steady state was obtained. IC50 values were determined by extrapolation from linear regression analysis.
DPPH, 2,2-Diphenyl-1-picrylhydrazyl (DPPH.), is a stable radical in methanol solution. […]

Q: With `O=C(/C=C/CCc1ccc(O)cc1)CCc1ccccc1` [AO-3, 7-(4″-hydroxyphenyl)-1-phenyl-hept-4-en-3-one] as the compound, how does the IC50 read?
A: > 1000 µM

Q: For `O=C(/C=C/CCc1ccccc1)CCc1ccccc1` [AO-5, 1,7-diphenylhept-4-en-3-one], which IC50 is on record?
A: > 1000 µM

From patent US20050215635A1, “Diarylheptanoid compounds and uses thereof” (priority 2004, published 2005)
